The other results are listed elsewhere or left out.
B1: il10ra_site1_normal_mot_HHH_b1_00999_000000080_0001_41_55_H_._HHH_b2_03012_0001_0000300027_0000002_0 (protein)
chain: SSSSSSSEEEVEELLEEAQKIDDPRERNRALVRALQIAIQSQDPELLQEVWRVIKELGSSSSSSS
B2: il10ra_site1_normal_mot_HHH_b2_00943_af2_000000149_0001_1_17_H_._d3c612d18aab0e0945b39b51a1e20ad4_0001_1_af2_0001_0000500040_0000001_0_af2pred_0001 (protein)
chain: SAEEVLQRQVERDPDDASALHLLLLVLAAKEGDPELVQLLRRANELSREGNPEEAREILQEAIER
B3: il10ra_site1_normal_mot_HHH_b2_00441_000000147_0001_1_18_H_._HHH_b1_04947_af2_0001_0000200007_0000001_0_af2pred_0001 (protein)
chain: SSSSDEYLKKAIRALFRAIKRAIELGDEEVVRLALKDLRFLAREHNDEEAEELLKELEELLSSSS
B4: il10ra_site1_sap_27_mot_39a7b8d0c4c3fc04bafbda6ce6101d3a_0001_1_af2_000000014_0001_34_48_H_._HHH_b1_08490_0001_0000300019_0000001_0_0001 (protein)
chain: SSSSTESQEVYEILREIVELIHEGDDEEAEELIRELKKLIEELGNRVMLMVLRYLEEHLNSSSSS
B5: il10ra_site1_sap_10_mot_HHH_b2_02315_000000136_0001_19_35_H_._7c653bbcfd290f4ebb70a7ee4eba5725_0001_0001_0000600021_0000001_0_0001_af2pred_0001 (protein)
chain: SSSSSAEEAVRLLLRAAKLAVELNDPERVKRALHLAERAARAENDEEAERLVEEVREEIEKSSSS
B6: il10ra_site1_normal_mot_HHH_b2_04912_000000028_0001_1_20_H_._HHH_b1_01163_af2_0001_0000300022_0000001_0 (protein)
chain: SSSSSDLNERALRLSREAFRLALRGNPEEARELLEEALELAEEANNERLFRQIEELLETQSSSSS
B7: il10ra_site1_normal_mot_HHH_b2_07145_000000168_0001_24_40_H_._HHH_b1_05095_af2_0001_0000200027_0000002_1 (protein)
chain: SSSSQEEFEELKKLIEEAIEALRNGNPEEAREILEQALELAEEANNTSARFAIRRVLELISSSSS
B8: il10ra_site1_sap_21_mot_HHH_b2_02053_af2_000000006_0001_3_19_H_._HHH_b1_02045_0001_0000100002_0000001_0_0001_af2pred_0001 (protein)
chain: SSSSSDTVEVALKAAERLLEEGNPEAAERAVRRAKEVAEQLGDEELQEEVERLLEEIERRSSSSS
B9: il10ra_site1_normal_mot_6805e7cfcec1a9f49da1e1cd80eb4878_0001_af2_000000116_0001_1_14_H_._b175c77b65581325a115f305b9dd1fb0_0001_1_0001_0000200004_0000001_1_af2p … (protein)
chain: SLEDVLTAALQEAFDIPREVAQAALDQLRAQAKTDEELAQAVAAALELAGRPELAARAREALRRS
B10: il10ra_site1_normal_mot_05ca327611f5605f0dd8494b449afcbf_0001_1_000000248_0001_35_51_H_._HHH_b2_06634_0001_0000200008_0000001_1 (protein)
chain: SSSSSEESQIVQELLRKAIELIRKGNPEEAEELLEEAERVAEEGNNPVLEFAIRAVEKALNSSSS
B11: il10ra_site1_normal_mot_HHH_b2_08186_000000021_0001_43_56_H_._HHH_b2_03908_0001_0000100004_0000001_0 (protein)
chain: SSSSDVEERVKELIEQIEELLEEGNEEEARELLLEALQLAYEGQNPELLRELWELLQRLASSSSS
B12: il10ra_site1_normal_mot_HHH_b2_00984_000000042_0001_1_20_H_._HHH_b1_07343_0001_0000600038_0000001_0 (protein)
chain: SSSSTEEFLRLLQEALRLAIRLRDPEALQEIWELIREYIREGDPRLEEELEELVEELRRRGSSSS
B13: il10ra_site1_normal_mot_HHH_b1_06816_000000239_0001_1_19_H_._HHH_b1_07754_0001_0000500010_0000001_1 (protein)
chain: SSSSSSDREEEAEELLEELKQIPDPDERFKLAREAIELAVEAGDPELARRISRLAAELSSSSSSS
B14: il10ra_site1_sap_17_mot_HHH_b1_02881_000000046_0001_1_20_H_._HHH_b2_00998_0001_0000100006_0000001_0_0001_af2pred_0001 (protein)
chain: SSSSEAQEIALEAAVEARRLLLRGNPEEARKVLEEAEEELRELNDPRAVLTIELLLRIIEESSSS
B15: il10ra_site1_sap_24_mot_HHH_b2_05548_000000224_0001_41_54_H_._HHH_b2_01208_0001_0000100017_0000001_0_0001 (protein)
chain: SSSSDEEEVEELIEEIERLLEEGDPEKAVELIRRLAELAHELNDPELARIVLELSRLVVDRSSSS
B16: il10ra_site1_sap_23_mot_HHH_b1_00566_000000151_0001_22_39_H_._HHH_b2_03844_0001_0000200011_0000002_0_0001 (protein)
chain: SSSSTELTERVYKLSEEALELEARGNPEEAEKVLEEAEEIAEEAGSRALLEVVRYFLEKLRSSSS
B17: il10ra_site1_normal_mot_65b8060e20531850bca9f2e11f97d954_0001_af2_000000137_0001_17_31_H_._HHH_b1_03310_0001_0000100015_0000002_0 (protein)
chain: SSSSDEEIHRVSRLFVRASRLLDEGNPEEAHKLLEEMEELAEEGNDERLKLSVRFLEALIKSSSS
B18: il10ra_site1_normal_mot_HHH_b2_03183_af2_000000055_0001_40_56_H_._HHH_b1_05465_0001_0000300021_0000001_0 (protein)
chain: SSSSDKEERELVRAAVRLAEQVSERVVRFLLLAAEKRAEELNDPELRELVEELREYLEELSSSSS
B19: il10ra_site1_normal_mot_HHH_b2_03438_af2_000000049_0001_18_34_H_._HHH_b2_01341_0001_0000400023_0000002_0 (protein)
chain: SSSSDVQEEVERLLEEAEEAQERGNPEEAYRLIREAAELAHERNDEELARLVQEVARRIVSSSSS
B20: il10ra_site1_normal_mot_HHH_b1_08477_000000091_0001_40_57_H_._HHH_b2_05490_af2_0001_0000100011_0000001_0 (protein)
chain: SSSSSEEERLKQSIRFAKRLIENGDPEAARRILRAAIDVARRLGDEELLEEAERVLEELDSSSSS
B21: il10ra_site1_normal_mot_HHH_b2_04680_000000215_0001_1_16_H_._HHH_b2_06226_0001_0000600061_0000001_0 (protein)
chain: SSSSSSEEKATREAYELIREAFHIEDEEKVRELLEEALELAEEANNFALIFAIRQALRELSSSSS
B22: il10ra_site1_normal_mot_HHH_b1_00999_000000080_0001_41_55_H_._HHH_b1_08189_0001_0000500019_0000001_0 (protein)
chain: SSSSSSREFSRLLQEAVRLAFKNSDEELLKALWRLAREWGEEGDEKYEEELRELIEEVGSSSSSS
B23: il10ra_site1_sap_20_mot_HHH_b1_03900_000000129_0001_1_16_H_._HHH_b2_04630_af2_0001_0000200009_0000001_0_0001 (protein)
chain: SSSSSDEDQELLELLHELIELLLRGDEEEAHKLAREILELAEELNDEKVFRMAEDLLKAASSSSS
B24: il10ra_site1_sap_19_mot_HHH_b2_07758_000000036_0001_41_55_H_._HHH_b2_04674_0001_0000100003_0000001_0_0001 (protein)
chain: SSSSSEQREALRRFIEAMVEWLEKTGDPEAERALRFLLVSARLLGDEEAEELAEEVLERLSSSSS
B25: il10ra_site1_sap_12_mot_HHH_b1_08466_000000162_0001_1_19_H_._HHH_b1_00329_0001_0000600026_0000001_0_0001 (protein)
chain: SSSSDEEEVKERVEELLEEAEKIEDKQEVARLFMEALRLAFRARDDELMEEIWRSFKELTSSSSS
B26: il10ra_site1_sap_25_mot_HHH_b2_04681_000000155_0001_43_57_H_._HHH_b2_03205_0001_0000200011_0000002_0_0001 (protein)
chain: SSSSNQYEEVERVLEEAMELYREGNPEEAERLLEEAEEELEKLNNWAALFAIRHLLRVVRNSSSS
B27: il10ra_site1_sap_17_mot_HHH_b1_01307_000000115_0001_1_18_H_._HHH_b1_07268_af2_0001_0000600052_0000001_0_0001 (protein)
chain: SSSSSDEEEREVEELLEEAKEIDDPEEAAEVLLRALRLALHLQDSELLRAVWRVVKELGSSSSSS
B28: il10ra_site1_sap_26_mot_HHH_b2_02736_000000092_0001_22_38_H_._HHH_b2_05977_0001_0000100003_0000001_0_0001_af2pred_0001 (protein)
chain: SSSSSTDESERIIELLREAVQIPDPEEAEEVLREAEELAERLGNELLRFIVEWLLKRLGSSSSSS
B29: il10ra_site1_normal_mot_HHH_b2_08144_af2_000000046_0001_38_52_H_._HHH_b2_02580_0001_0000200021_0000001_1_af2pred_0001 (protein)
chain: SSSSTEEDEEALRLLRELAELYSNGDEEEAEELAEEARRVAQEANNPLVELLIRFLLERASSSSS
B30: il10ra_site1_sap_25_mot_HHH_b2_00401_000000001_0001_40_54_H_._HHH_b2_05201_0001_0000100006_0000001_0_0001 (protein)
chain: SSSSSEEAEEILEEAEKLIEELLERGDPQRAFEVVEEAARRLLRLGDPEAIRRLIEAFVRLSSSS
B31: il10ra_site1_sap_23_mot_HHH_b1_03900_000000129_0001_1_16_H_._HHH_b1_02874_af2_0001_0000600030_0000002_0_0001_af2pred_0001 (protein)
chain: SSSSDEEAQRIAEEAEEEAEKLAEEGNPQEAAQVLAEASRRVAELGDPELALRLARLFAELSSSS
B32: il10ra_site1_normal_mot_HHH_b2_00622_af2_000000153_0001_40_57_H_._HHH_b1_02938_0001_0000100006_0000001_0 (protein)
chain: SSSSSVERAVRRLNHAAKQLLERGDPEVAERALRFAKALAESANNDELREEVEELLEEVRRSSSS
B33: il10ra_site1_sap_19_mot_HHH_b2_05984_000000071_0001_38_52_H_._HHH_b2_05373_0001_0000700029_0000001_0_0001 (protein)
chain: SSSSDEEEERLEELKKEIERLEEEGNPQEALEAIQEAVRLAFRLGDEETLQELWELVKKQESSSS
B34: il10ra_site1_normal_mot_HHH_b1_02997_000000220_0001_39_52_H_._HHH_b2_06530_af2_0001_0000100007_0000001_0 (protein)
chain: SSSDEELHELYELIREAAELLAEGNPEEAQEVVEEAERLAEKLGNVNLLFNARYLLRVIEHSSSS
B35: il10ra_site1_sap_14_mot_HHH_b2_07495_000000114_0001_42_55_H_._HHH_b2_02957_0001_0000200014_0000002_0_0001 (protein)
chain: SSSSSDEEAAERSVKFMLRAAKQLEDEEYVRLALRFARAIARDGNDPELERLVEKVEEELSSSSS
B36: il10ra_site1_sap_24_mot_HHH_b1_02665_000000293_0001_1_18_H_._HHH_b1_03004_0001_0000100002_0000001_0_0001_af2pred_0001 (protein)
chain: SSSSDEEEEAEELLEQAEEAAKRNDSKLLLKILRRVAELAAESRNPELAEIARKIAQLFGSSSSS
B37: il10ra_site1_sap_13_mot_HHH_b2_00092_000000181_0001_22_39_H_._HHH_b2_02377_0001_0000400027_0000001_0_0001 (protein)
chain: SSSSSDETEELYRLSKEAIELAAEGNPEEAKEVLEEAEKIAEEANNRVLLVNIRYLLRKLSSSSS

Target: il10ra, Q13651
Assay: yeast display titration

Apparent Kd, inactive:
B1 no binding seen
B2 no binding seen
B3 no binding seen
B4 no binding seen
B5 no binding seen
B6 no binding seen
B7 no binding seen
B8 no binding seen
B9 no binding seen
B10 no binding seen
B11 no binding seen
B12 no binding seen
B13 no binding seen
B14 no binding seen
B15 no binding seen
B16 no binding seen
B17 no binding seen
B18 no binding seen
B19 no binding seen
B20 no binding seen
B21 no binding seen
B22 no binding seen
B23 no binding seen
B24 no binding seen
B25 no binding seen
B26 no binding seen
B27 no binding seen
B28 no binding seen
B29 no binding seen
B30 no binding seen
B31 no binding seen
B32 no binding seen
B33 no binding seen
B34 no binding seen
B35 no binding seen
B36 no binding seen
B37 no binding seen

Random excerpt: 2 records from the list.
Apparent Kd, inactive:
B11 no binding seen
B21 no binding seen
